PubChem BioAssay AID1671195, Yale University – 2021

- Test: 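Genes whose knockdown alters LDL uptake in liver cancer cells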 (primary screen)
- Cell system: human Huh7 hepatoma cells
- Reagent: siRNA pool against human genes, 18 nM
- Time to read-out: about 2 to 2.5 days of knockdown, then 8 h LDL uptake
- Challenge: DiI-labelled LDL at 30 µg/ml for 8 h, in lipoprotein-deficient serum medium
- Measurement: 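Per-cell DiI-LDL intensity by automated imaging; well means scaled to the plate median and given as a robust z-score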
- Reading the numbers: robust z-score: higher = more LDL uptake after knockdown
- Rule for the call: 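a gene counts as active if at least two replicate z-scores exceed ±2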
The whole screen tested about 22,000 reagents; shown is a random part of them. Over the whole deposit, about 1,510 (6.9%) were called active. 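Active includes knockdowns raising or lowering LDL uptake; positive z-scores mean more uptake, negative mean less.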 Unmarked entries are inactive.

target gene	robust z-score, replicate 1	robust z-score, replicate 2	robust z-score, replicate 3
ASTE1	0.543	0.673	0.211
SPINK7	-0.093	0.303	-0.61
LOC440156 (retired record)	0.371	-0.185	0.162
ZNF630	0.678	0.668	0.58
ZNF831	0.821	0.95	1.13
ZBTB47	0.0651	1.13	1.43
SPATA7	-0.0925	-1.39	-1.02
LOC401210 (retired record)	-1.26	-1.06	-0.742
LOC401165 (retired record)	-0.0192	-0.307	0.399
NNT	1.57	0.755	0.918
RSPO3	-1.25	-1.13	-1.12
SKIL	-0.0322	-0.0254	0.0358
ITPRIPL2	0.231	-1.04	-0.775
PTCD3	1.68	0.726	1.55
EDRF1-DT	1.39	-0.153	0.667
EEIG1	-1.92	0.112	0.145
CALML6	-0.748	-0.634	-0.32
LOC343854 (retired record)	0.226	-0.118	0.163
LINC00839	0.277	-0.0838	0.176
SCO2	0.784	-0.265	-0.125
FOXA2	-0.00467	0.495	1.05
IMP3	0.99	2.04	1.4
ABRAXAS1	1.9 (active)	2.28	1.58
NCALD	-0.0881	-0.388	0.0403
SPRR2B	-1.19	0.587	-0.188
CALCOCO2	2.7 (active)	0.58	3.85
KAT14	-0.274	-0.466	-0.188
PCP4	0.126	-1.25	0.0414
LOC441627 (retired record)	-0.442	-0.373	-0.472
TMEM201	-0.197	0.21	0.51
FSHR	0.106	0.148	-0.0516
DNAJC4	-0.0356	-0.0951	-0.174
SPSB4	-0.271	-0.208	0.822
PRH2	-0.735	1.8	-0.902
GPX7	-0.966	-0.303	-1.16
HAPLN2	-1.03	-1.31	-1.37
LOC442208 (retired record)	-2.96 (active)	-2.99	-2.81
ECSIT	0.233	0.721	0.352
DCLRE1A	-0.775	-0.272	3.12
LOC345378 (retired record)	-1.39	-1.79	-1.02
ZNF709	1.05	0.728	0.953
TEX10	-0.177	-0.814	0.351
LOC440806 (retired record)	-1.59	-0.866	-0.498
CTSS	0.567	-0.35	-0.469
LOC147942 (retired record)	-0.258	-0.00478	-0.129
RPL26P12	-1.2	-1.33	-1.24
